PubChem BioAssay AID1224830 – NIAID – 2016
The whole screen tested about 18,000 reagents; below is an unselected part. Over the whole deposit, about 2,900 (16%) got an active call. 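Calls are made per well; low scores hint the gene aids the LPS response, high scores that it dampens it.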 Repeated entries: four replicate wells of each siRNA pool.

Test: 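Regulators of TLR4 signalling towards TNF-alpha in macrophage-like cells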 (primary screen)
System: human THP-1 monocytic leukaemia cells, TNF dual-luciferase reporter clone, PMA-differentiated to macrophage-like cells
Reagents: siRNA pool against human genes, 50 nM
Time to read-out: LPS for 4 h, given about 3 days after siRNA transfection
Conditions: bacterial LPS (TLR4 ligand), 10 ng/ml
Detection: 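TNF firefly reporter luminescence divided by renilla, normalised to the plate median, then turned into a robust z-score for each replicate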
Direction: TNF reporter robust z-score: higher = stronger TNF reporter response to LPS
Hit rule: 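Each well counts as active if its z-score is over 2.8 or under -1.5; controls are left without a call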

After knock-down of CRAT (carnitine O-acetyltransferase), the screen gave TNF reporter robust z-score -1.27; inactive.
CRAT (carnitine O-acetyltransferase) scored TNF reporter robust z-score -0.56; inactive.
With knock-down of CRAT (carnitine O-acetyltransferase) the results were TNF reporter robust z-score -0.86; inactive.
For CRAT (carnitine O-acetyltransferase), the values are TNF reporter robust z-score 0.04; inactive.
With knock-down of SACK1F (scaffolding CK1 anchoring protein F), the record shows TNF reporter robust z-score 1.8; inactive.
SACK1F (scaffolding CK1 anchoring protein F) scored TNF reporter robust z-score 3.76; active.
SACK1F (scaffolding CK1 anchoring protein F) scored TNF reporter robust z-score 2.5; inactive.
SACK1F (scaffolding CK1 anchoring protein F) scored TNF reporter robust z-score 3.64; active.
With knock-down of PNMA3 (PNMA family member 3) the results were TNF reporter robust z-score 0.49; inactive.
With knock-down of PNMA3 (PNMA family member 3), the screen gave TNF reporter robust z-score 0.69; inactive.
After knock-down of PNMA3 (PNMA family member 3) the results were TNF reporter robust z-score 0.36; inactive.
Silencing of PNMA3 (PNMA family member 3) gave: TNF reporter robust z-score -0.89; inactive.

The listing continues.
With knock-down of RASL11B (RAS like family 11 member B), the screen gave TNF reporter robust z-score 0.53; inactive.
Knock-down of RASL11B (RAS like family 11 member B) gave: TNF reporter robust z-score 0.39; inactive.
For RASL11B (RAS like family 11 member B), the entry reads TNF reporter robust z-score 0.62; inactive.
With knock-down of RASL11B (RAS like family 11 member B), the record shows TNF reporter robust z-score 0.54; inactive.
For SEC14L1 (SEC14 like lipid binding 1), the values are TNF reporter robust z-score -1.75; active.
With knock-down of SEC14L1 (SEC14 like lipid binding 1), the screen gave TNF reporter robust z-score -1.3; inactive.
Against SEC14L1 (SEC14 like lipid binding 1), the entry reads TNF reporter robust z-score -1.32; inactive.
After knock-down of SEC14L1 (SEC14 like lipid binding 1), the record shows TNF reporter robust z-score -1.47; inactive.
Knock-down of SMYD3 (SET and MYND domain containing 3) gave: TNF reporter robust z-score 1.32; inactive.
SMYD3 (SET and MYND domain containing 3) scored TNF reporter robust z-score 2.82; active.
With knock-down of SMYD3 (SET and MYND domain containing 3), the record shows TNF reporter robust z-score 3.25; active.
Depletion of SMYD3 (SET and MYND domain containing 3) gave: TNF reporter robust z-score 1.61; inactive.
After knock-down of PHF2 (PHD finger protein 2), the record shows TNF reporter robust z-score 1.26; inactive.
Knock-down of PHF2 (PHD finger protein 2) gave: TNF reporter robust z-score -0.75; inactive.
Against PHF2 (PHD finger protein 2), the entry reads TNF reporter robust z-score 0.56; inactive.
Knock-down of PHF2 (PHD finger protein 2) gave: TNF reporter robust z-score -0.56; inactive.
Knock-down of HSBP1 (heat shock factor binding protein 1) resulted in: TNF reporter robust z-score -0.39; inactive.
Knock-down of HSBP1 (heat shock factor binding protein 1) gave: TNF reporter robust z-score -0.42; inactive.
For HSBP1 (heat shock factor binding protein 1), the entry reads TNF reporter robust z-score -0.92; inactive.
Silencing of HSBP1 (heat shock factor binding protein 1) came out at: TNF reporter robust z-score -0.95; inactive.
